# According to PubChem BioAssay AID200 (DTP/NCI, 2004):
# The list is a part of this screen's results and no random one: it gathers tests that were run many times, whatever their T/C, doses with no T/C, and many T/C values between a quarter and a half above the control. Further doses and runs are listed elsewhere. T/C is the treated group as % of the vehicle group. Some entries give survivors of the animals treated and no T/C: the source holds a T/C of zero for them, seemingly a mark for toxic or unscored doses. Some survivor counts are full or nearly so, which does not show that the dose was tolerated: survival well below the control is almost never listed, so the zero probably covers shortened survival too. Counts of survivors are from the toxicity check (mostly the fifth day) where no day follows; animals may have died later. Schedule codes are those of the source, read here as Q, the interval in days (D) or hours (H), X, the number of doses. Additions like (4×) say how often a value occurs here. Some entries hold several experiments; their values stand side by side, smallest first. Where survival is the endpoint, the PubChem record calls one and a half times the control and up active, and a quarter to a half above the control has no call in these data; cut-offs in other NCI protocols can differ. Some T/C values are followed by the survivors on the day toxicity was checked, most often the fifth; where none is given, no animal had died by that day.
# Tested on: B6C3F1 mice, B16 melanoma ip, median survival T/C
# Experiment: NCI In Vivo Anticancer Drug Screen. Data for tumor model B16 Melanoma (intraperitoneal) in B6C3F1 mice
# Conditions: T/C endpoint: median survival time, higher T/C = longer survival
# Summary of the method: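 Values are T/C ratios: the measurement in treated animals divided by that in vehicle-treated controls, using survival or tumor size in mice carrying transplantable tumors.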
# [1] = dose: 400.0 mg/kg/injection, schedule: Q01DX009 (ip), vehicle: saline with Tween-80
# [2] = dose: 8.0 micrograms/kg/injection, schedule: Q01DX009 (ip), vehicle: saline
# [3] = dose: 50.0 mg/kg/injection, schedule: Q01DX009 (ip), vehicle: water
# [4] = dose: 25.0 mg/kg/injection, schedule: Q01DX009 (ip), vehicle: saline with Tween-80
# [5] = dose: 200.0 mg/kg/injection, schedule: Q01DX009 (ip), vehicle: Klucel (hydroxypropylcellulose) (HPC)
# [6] = dose: 400.0 mg/kg/injection, schedule: Q01DX009 (ip), vehicle: Klucel (hydroxypropylcellulose) (HPC)
# [7] = dose: 0.4 mg/kg/injection, schedule: Q01DX009 (ip), vehicle: saline
structure (smiles),measurement,setting,value
CC1OC1C(=O)C1(O)C(C)C(O)C23OC2(C(O)c2c(O)cccc2C3=O)C1O (centres undefined),T/C,"dose: 0.5 mg/kg/injection, schedule: Q01DX009 (ip), vehicle: Klucel (hydroxypropylcellulose) (HPC), evaluated on day 50",99 % of control
same,T/C,"dose: 0.5 mg/kg/injection, schedule: Q01DX009 (ip), vehicle: Klucel (hydroxypropylcellulose) (HPC), evaluated on day 60",88 and 89 % of control
same,T/C,"dose: 1.0 mg/kg/injection, schedule: Q01DX009 (ip), vehicle: Klucel (hydroxypropylcellulose) (HPC), evaluated on day 50",107 % of control
same,T/C,"dose: 1.0 mg/kg/injection, schedule: Q01DX009 (ip), vehicle: Klucel (hydroxypropylcellulose) (HPC), evaluated on day 60",95 % of control
same,survivor count,"dose: 1.0 mg/kg/injection, schedule: Q01DX009 (ip), vehicle: Klucel (hydroxypropylcellulose) (HPC)",10 of 10
same,T/C,"dose: 2.0 mg/kg/injection, schedule: Q01DX009 (ip), vehicle: Klucel (hydroxypropylcellulose) (HPC), evaluated on day 50",111 % of control [9 of 10 alive]
same,T/C,"dose: 2.0 mg/kg/injection, schedule: Q01DX009 (ip), vehicle: Klucel (hydroxypropylcellulose) (HPC), evaluated on day 60",102 % of control
same,survivor count,"dose: 2.0 mg/kg/injection, schedule: Q01DX009 (ip), vehicle: Klucel (hydroxypropylcellulose) (HPC)",10 of 10
same,T/C,"dose: 4.0 mg/kg/injection, schedule: Q01DX009 (ip), vehicle: Klucel (hydroxypropylcellulose) (HPC), evaluated on day 50",119 % of control
same,T/C,"dose: 4.0 mg/kg/injection, schedule: Q01DX009 (ip), vehicle: Klucel (hydroxypropylcellulose) (HPC), evaluated on day 60",106 and 108 % of control
same,T/C,"dose: 8.0 mg/kg/injection, schedule: Q01DX009 (ip), vehicle: Klucel (hydroxypropylcellulose) (HPC), evaluated on day 50",123 % of control
same,T/C,"dose: 8.0 mg/kg/injection, schedule: Q01DX009 (ip), vehicle: Klucel (hydroxypropylcellulose) (HPC), evaluated on day 60",113 and 135 % of control
same,survivor count,"dose: 16.0 mg/kg/injection, schedule: Q01DX009 (ip), vehicle: Klucel (hydroxypropylcellulose) (HPC)","7 of 10, 9 of 10, 10 of 10"
N#CC(Br)(Br)C(N)=O,survivor count,"dose: 0.63 mg/kg/injection, schedule: Q01DX009 (ip), vehicle: saline",10 of 10
same,survivor count,"dose: 2.5 mg/kg/injection, schedule: Q01DX009 (ip), vehicle: saline",10 of 10
COc1ccc2c(NCCCCCCNc3c4ccccc4nc4cc(OC)ccc34)c3ccccc3nc2c1,survivor count,"dose: 156.0 micrograms/kg/injection, schedule: Q01DX009 (ip), vehicle: lactic acid",10 of 10
same,survivor count,"dose: 313.0 micrograms/kg/injection, schedule: Q01DX009 (ip), vehicle: lactic acid",7 of 10
CC1(c2ccc(Cl)cc2)OC(=O)C(=Cc2ccc([N+](=O)[O-])s2)C(=O)O1 (centres undefined),survivor count,"dose: 100.0 mg/kg/injection, schedule: Q01DX009 (ip), vehicle: saline with Tween-80",10 of 10
same,survivor count,"dose: 200.0 mg/kg/injection, schedule: Q01DX009 (ip), vehicle: saline with Tween-80",7 of 10
S=c1[nH]cc2cnccn12,survivor count,[1],7 of 10
CC(O)C(NC(=O)OC(C)(C)C)C(=O)O (centres undefined),survivor count,"dose: 200.0 mg/kg/injection, schedule: Q01DX009 (ip), vehicle: saline",10 of 10
C/C=C/c1cc2n(c1)C(=O)c1cc(OC3OC(C)C(NC)C(C)(O)C3O)c(C)c(O)c1NC2O (centres undefined),T/C,"dose: 1.0 micrograms/kg/injection, schedule: Q01DX009 (ip), vehicle: saline","115, 126, 155, 163 % of control"
same,T/C,"dose: 2.0 micrograms/kg/injection, schedule: Q01DX009 (ip), vehicle: saline","136, 145, 149, 165 % of control"
same,T/C,"dose: 4.0 micrograms/kg/injection, schedule: Q01DX009 (ip), vehicle: saline","147 [9 of 10 alive], 163 [8 of 10 alive], 164, 166 % of control"
same,T/C,"dose: 4.0 micrograms/kg/injection, schedule: Q04DX003 (ip), vehicle: DMSO",125 % of control
same,T/C,[2],176 % of control
same,survivor count,[2],"7 of 10, 10 of 10, 8 of 8"
same,T/C,"dose: 8.0 micrograms/kg/injection, schedule: Q04DX003 (ip), vehicle: DMSO",143 % of control
same,survivor count,"dose: 16.0 micrograms/kg/injection, schedule: Q01DX009 (ip), vehicle: saline",10 of 10 (2×)
same,T/C,"dose: 16.0 micrograms/kg/injection, schedule: Q04DX003 (ip), vehicle: DMSO",134 % of control
same,survivor count,"dose: 32.0 micrograms/kg/injection, schedule: Q01DX009 (ip), vehicle: saline",5 of 10
same,T/C,"dose: 32.0 micrograms/kg/injection, schedule: Q04DX003 (ip), vehicle: DMSO",132 % of control
NC(Cc1ccc(N(CCCl)Cc2ccccc2)cc1)C(=O)O (centres undefined),T/C,"dose: 12.5 mg/kg/injection, schedule: Q01DX009 (ip), vehicle: distilled water + Tween-80",147 % of control [7 of 10 alive]
same,T/C,"dose: 25.0 mg/kg/injection, schedule: Q01DX009 (ip), vehicle: distilled water + Tween-80",143 % of control
same,T/C,"dose: 50.0 mg/kg/injection, schedule: Q01DX009 (ip), vehicle: distilled water + Tween-80",142 % of control [9 of 10 alive]
same,survivor count,"dose: 100.0 mg/kg/injection, schedule: Q01DX009 (ip), vehicle: distilled water + Tween-80",1 of 10
NC(CNC(=O)CBr)C(=O)O (centres undefined),T/C,"dose: 12.5 mg/kg/injection, schedule: Q01DX009 (ip), vehicle: water",135 % of control
same,T/C,"dose: 25.0 mg/kg/injection, schedule: Q01DX009 (ip), vehicle: water","134, 138 [9 of 10 alive], 147 % of control"
same,T/C,[3],137 % of control
same,survivor count,[3],8 of 10
same,survivor count,"dose: 100.0 mg/kg/injection, schedule: Q01DX009 (ip), vehicle: water",3 of 10 and 4 of 10
CCC/C=C/C=C/C(=O)OC1/C(=C/C(=O)OC)CC2CC(C(C)O)OC(=O)CC(O)CC3CC(OC(C)=O)C(C)(C)C(O)(CC4C/C(=C/C(=O)OC)CC(/C=C/C(C)(C)C1(O)O2)O4)O3 (centres undefined),survivor count,"dose: 150.0 micrograms/kg/injection, schedule: Q01DX009 (ip), vehicle: saline + alcohol",7 of 10
same,survivor count,"dose: 300.0 micrograms/kg/injection, schedule: Q01DX009 (ip), vehicle: saline + alcohol",2 of 10
CC(=O)NCCCCCCNC(C)=O,T/C,"dose: 400.0 mg/kg/injection, schedule: Q01DX009 (ip), vehicle: saline",140 % of control [9 of 10 alive]
Nc1ccc(S(=O)(=O)c2ccc(N)cc2)cc1,survivor count,[4],10 of 10
same,survivor count,[5],5 of 10
same,survivor count,[6],0 of 10
NCC(O)c1ccc(O)c(O)c1 (centres undefined),T/C,"dose: 0.75 mg/kg/injection, schedule: Q01DX009 (ip), vehicle: suspension in saline",125 % of control
same,T/C,"dose: 1.5 mg/kg/injection, schedule: Q01DX009 (ip), vehicle: suspension in saline",134 % of control [9 of 10 alive]
CNC(=O)Oc1ccc[nH]c1=O,survivor count,"dose: 512.0 mg/kg/injection, schedule: Q01DX009 (ip), vehicle: saline with Tween-80",6 of 10
COC1=C(NC(C)=O)C(=O)c2nc(-c3nc(C(=O)O)c(C)c(-c4ccc(OC)c(OC)c4O)c3N)ccc2C1=O,survivor count,"dose: 100.0 mg/kg/injection, schedule: Q01DX009 (ip), vehicle: Klucel (hydroxypropylcellulose) (HPC)",10 of 10
same,survivor count,[5],1 of 10
CNC(=O)/C=C/C1=CN2C(=O)c3ccc(C)c(O)c3NC(OC)C2C1 (centres undefined),T/C,"dose: 0.2 mg/kg/injection, schedule: Q01DX009 (ip), vehicle: saline",138 % of control
same,survivor count,"dose: 0.2 mg/kg/injection, schedule: Q01DX009 (ip), vehicle: suspension in saline",8 of 10
same,T/C,[7],142 % of control [9 of 10 alive]
same,survivor count,[7],10 of 10
same,survivor count,"dose: 0.4 mg/kg/injection, schedule: Q01DX009 (ip), vehicle: suspension in saline",5 of 10
same,survivor count,"dose: 0.8 mg/kg/injection, schedule: Q01DX009 (ip), vehicle: suspension in saline",0 of 10
CC(C)CC(NC(=O)OCC1c2ccccc2-c2ccccc21)C(=O)O (centres undefined),T/C,"dose: 50.0 mg/kg/injection, schedule: Q01DX009 (ip), vehicle: Klucel (hydroxypropylcellulose) (HPC)",135 % of control
same,survivor count,[5],9 of 10
same,survivor count,[6],0 of 10
O=C1CN(CN2CCOCC2)C(=O)CN1CN1CCOCC1,survivor count,[1],1 of 10
O=C1NC(c2ccccc2)N=C2Oc3ccccc3C=C12 (centres undefined),T/C,[4],128 % of control (2×)
same,survivor count,"dose: 50.0 mg/kg/injection, schedule: Q01DX009 (ip), vehicle: saline with Tween-80",10 of 10
